According to the supplement of paper PMC10849652:
Some of the results follow. Residues, ends and D or L forms follow the SMILES beside them. *: point of attachment. Cbz = O=C(OCc1ccccc1)*

Chains of the proteins cited; added tags and fusions are not shown. Lines headed by an entry give the natural chain unless they say otherwise; changes in a name come on top.
UniProt Q9Y3D2: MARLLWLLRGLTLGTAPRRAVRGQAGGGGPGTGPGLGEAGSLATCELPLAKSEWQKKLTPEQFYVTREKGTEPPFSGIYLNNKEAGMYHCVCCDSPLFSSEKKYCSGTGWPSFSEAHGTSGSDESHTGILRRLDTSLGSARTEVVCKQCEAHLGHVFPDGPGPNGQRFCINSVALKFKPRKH
UniProt O75431: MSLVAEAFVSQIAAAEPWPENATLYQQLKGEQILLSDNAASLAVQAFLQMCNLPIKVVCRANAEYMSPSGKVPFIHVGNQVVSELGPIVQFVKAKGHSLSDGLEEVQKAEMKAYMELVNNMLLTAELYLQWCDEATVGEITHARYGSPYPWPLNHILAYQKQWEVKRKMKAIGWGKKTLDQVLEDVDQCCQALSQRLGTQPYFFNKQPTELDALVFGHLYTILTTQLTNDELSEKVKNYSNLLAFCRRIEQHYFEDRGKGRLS
UniProt Q13505: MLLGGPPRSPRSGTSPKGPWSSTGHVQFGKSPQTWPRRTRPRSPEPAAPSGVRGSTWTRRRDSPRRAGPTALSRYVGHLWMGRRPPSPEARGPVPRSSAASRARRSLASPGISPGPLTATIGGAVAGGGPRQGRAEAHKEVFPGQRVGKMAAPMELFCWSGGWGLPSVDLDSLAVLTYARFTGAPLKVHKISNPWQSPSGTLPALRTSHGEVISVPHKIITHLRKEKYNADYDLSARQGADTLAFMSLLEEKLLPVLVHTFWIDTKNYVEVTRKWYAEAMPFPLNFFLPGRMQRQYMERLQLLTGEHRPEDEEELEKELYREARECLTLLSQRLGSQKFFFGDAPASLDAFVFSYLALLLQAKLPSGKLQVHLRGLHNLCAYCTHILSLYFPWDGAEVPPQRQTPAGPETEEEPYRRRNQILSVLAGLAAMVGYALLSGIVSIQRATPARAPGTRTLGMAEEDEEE
UniProt O00159, whole entry, looked up: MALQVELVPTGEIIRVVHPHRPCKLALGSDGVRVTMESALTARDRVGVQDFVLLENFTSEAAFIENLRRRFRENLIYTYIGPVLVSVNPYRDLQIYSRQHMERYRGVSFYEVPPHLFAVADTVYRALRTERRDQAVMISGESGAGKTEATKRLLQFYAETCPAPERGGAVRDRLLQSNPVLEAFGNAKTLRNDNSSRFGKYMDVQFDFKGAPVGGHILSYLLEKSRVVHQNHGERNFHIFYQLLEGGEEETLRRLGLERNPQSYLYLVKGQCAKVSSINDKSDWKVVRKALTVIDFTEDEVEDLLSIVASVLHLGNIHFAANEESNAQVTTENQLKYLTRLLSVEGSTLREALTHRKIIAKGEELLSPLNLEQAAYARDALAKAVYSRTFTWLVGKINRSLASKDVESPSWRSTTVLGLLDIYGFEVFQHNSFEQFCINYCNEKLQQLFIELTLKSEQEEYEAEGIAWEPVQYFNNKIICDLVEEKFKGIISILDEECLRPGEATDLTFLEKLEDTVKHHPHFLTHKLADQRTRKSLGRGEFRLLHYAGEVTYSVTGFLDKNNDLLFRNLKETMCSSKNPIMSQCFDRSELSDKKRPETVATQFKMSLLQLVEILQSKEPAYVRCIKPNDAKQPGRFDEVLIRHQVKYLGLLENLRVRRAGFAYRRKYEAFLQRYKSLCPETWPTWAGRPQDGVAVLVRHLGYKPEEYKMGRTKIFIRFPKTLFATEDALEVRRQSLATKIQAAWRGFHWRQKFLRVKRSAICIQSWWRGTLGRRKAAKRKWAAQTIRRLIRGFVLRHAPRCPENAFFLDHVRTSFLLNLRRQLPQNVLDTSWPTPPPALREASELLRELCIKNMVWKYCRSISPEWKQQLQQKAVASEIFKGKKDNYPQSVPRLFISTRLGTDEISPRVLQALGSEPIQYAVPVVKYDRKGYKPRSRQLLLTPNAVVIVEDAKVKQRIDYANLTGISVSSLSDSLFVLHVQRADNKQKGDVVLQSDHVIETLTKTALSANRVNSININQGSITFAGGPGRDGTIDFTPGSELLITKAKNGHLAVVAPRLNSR
UniProt Q96DR8: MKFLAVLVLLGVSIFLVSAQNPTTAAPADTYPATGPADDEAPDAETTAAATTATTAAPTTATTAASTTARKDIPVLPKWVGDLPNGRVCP
UniProt P12829: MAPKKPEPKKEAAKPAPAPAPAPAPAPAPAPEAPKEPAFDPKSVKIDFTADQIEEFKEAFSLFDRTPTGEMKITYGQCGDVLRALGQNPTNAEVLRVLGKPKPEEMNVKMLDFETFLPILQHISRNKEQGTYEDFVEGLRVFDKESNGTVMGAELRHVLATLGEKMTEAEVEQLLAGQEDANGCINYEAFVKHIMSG
UniProt Q9HD23: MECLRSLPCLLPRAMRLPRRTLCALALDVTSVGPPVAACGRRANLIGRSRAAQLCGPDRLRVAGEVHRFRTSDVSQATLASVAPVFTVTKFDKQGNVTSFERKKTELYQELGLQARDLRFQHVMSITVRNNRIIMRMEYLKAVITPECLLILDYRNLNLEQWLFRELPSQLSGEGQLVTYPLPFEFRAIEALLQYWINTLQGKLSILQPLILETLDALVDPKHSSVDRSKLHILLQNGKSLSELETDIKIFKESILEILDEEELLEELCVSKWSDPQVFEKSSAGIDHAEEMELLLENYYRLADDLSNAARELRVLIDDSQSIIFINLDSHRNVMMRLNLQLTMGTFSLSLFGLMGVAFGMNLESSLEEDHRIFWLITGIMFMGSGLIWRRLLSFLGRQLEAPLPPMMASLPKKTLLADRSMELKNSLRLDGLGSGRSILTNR
UniProt Q96S97: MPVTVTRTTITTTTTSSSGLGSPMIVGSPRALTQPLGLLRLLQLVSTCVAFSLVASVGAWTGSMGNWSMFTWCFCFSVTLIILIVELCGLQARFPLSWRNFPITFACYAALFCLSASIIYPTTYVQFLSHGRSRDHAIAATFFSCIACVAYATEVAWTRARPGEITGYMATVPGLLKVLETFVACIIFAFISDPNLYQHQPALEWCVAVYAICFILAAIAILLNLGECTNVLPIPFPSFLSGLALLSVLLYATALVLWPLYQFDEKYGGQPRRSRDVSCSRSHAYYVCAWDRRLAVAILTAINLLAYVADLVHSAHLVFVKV
UniProt Q9UDX5: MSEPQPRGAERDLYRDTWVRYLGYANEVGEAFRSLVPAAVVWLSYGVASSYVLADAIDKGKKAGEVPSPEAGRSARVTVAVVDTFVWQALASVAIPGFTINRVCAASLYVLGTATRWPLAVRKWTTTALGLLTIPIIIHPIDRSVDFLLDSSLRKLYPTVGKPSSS
UniProt Q969V6: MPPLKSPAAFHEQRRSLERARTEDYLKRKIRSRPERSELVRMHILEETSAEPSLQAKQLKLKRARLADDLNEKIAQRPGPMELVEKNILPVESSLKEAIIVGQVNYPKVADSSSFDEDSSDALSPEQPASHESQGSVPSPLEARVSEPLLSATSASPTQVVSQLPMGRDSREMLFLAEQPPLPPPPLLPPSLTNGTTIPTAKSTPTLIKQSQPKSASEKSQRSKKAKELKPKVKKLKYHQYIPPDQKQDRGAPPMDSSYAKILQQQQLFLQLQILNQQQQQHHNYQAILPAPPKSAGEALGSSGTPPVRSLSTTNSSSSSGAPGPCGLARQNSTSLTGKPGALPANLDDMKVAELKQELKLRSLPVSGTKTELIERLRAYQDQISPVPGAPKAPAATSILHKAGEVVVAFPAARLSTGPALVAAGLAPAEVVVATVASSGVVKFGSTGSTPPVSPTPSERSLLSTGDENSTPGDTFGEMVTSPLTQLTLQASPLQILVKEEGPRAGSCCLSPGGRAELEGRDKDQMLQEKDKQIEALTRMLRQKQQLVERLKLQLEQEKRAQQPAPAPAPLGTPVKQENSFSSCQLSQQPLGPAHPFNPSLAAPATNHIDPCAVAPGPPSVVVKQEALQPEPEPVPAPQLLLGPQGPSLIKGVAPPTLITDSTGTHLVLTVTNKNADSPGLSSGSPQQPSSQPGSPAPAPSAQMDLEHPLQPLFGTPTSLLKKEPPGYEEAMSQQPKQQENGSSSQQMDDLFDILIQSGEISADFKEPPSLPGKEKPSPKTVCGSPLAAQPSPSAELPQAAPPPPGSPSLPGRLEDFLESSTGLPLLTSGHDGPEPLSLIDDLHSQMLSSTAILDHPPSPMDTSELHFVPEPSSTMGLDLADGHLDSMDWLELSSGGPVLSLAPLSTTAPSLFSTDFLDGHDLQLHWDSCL
UniProt Q9ULH7: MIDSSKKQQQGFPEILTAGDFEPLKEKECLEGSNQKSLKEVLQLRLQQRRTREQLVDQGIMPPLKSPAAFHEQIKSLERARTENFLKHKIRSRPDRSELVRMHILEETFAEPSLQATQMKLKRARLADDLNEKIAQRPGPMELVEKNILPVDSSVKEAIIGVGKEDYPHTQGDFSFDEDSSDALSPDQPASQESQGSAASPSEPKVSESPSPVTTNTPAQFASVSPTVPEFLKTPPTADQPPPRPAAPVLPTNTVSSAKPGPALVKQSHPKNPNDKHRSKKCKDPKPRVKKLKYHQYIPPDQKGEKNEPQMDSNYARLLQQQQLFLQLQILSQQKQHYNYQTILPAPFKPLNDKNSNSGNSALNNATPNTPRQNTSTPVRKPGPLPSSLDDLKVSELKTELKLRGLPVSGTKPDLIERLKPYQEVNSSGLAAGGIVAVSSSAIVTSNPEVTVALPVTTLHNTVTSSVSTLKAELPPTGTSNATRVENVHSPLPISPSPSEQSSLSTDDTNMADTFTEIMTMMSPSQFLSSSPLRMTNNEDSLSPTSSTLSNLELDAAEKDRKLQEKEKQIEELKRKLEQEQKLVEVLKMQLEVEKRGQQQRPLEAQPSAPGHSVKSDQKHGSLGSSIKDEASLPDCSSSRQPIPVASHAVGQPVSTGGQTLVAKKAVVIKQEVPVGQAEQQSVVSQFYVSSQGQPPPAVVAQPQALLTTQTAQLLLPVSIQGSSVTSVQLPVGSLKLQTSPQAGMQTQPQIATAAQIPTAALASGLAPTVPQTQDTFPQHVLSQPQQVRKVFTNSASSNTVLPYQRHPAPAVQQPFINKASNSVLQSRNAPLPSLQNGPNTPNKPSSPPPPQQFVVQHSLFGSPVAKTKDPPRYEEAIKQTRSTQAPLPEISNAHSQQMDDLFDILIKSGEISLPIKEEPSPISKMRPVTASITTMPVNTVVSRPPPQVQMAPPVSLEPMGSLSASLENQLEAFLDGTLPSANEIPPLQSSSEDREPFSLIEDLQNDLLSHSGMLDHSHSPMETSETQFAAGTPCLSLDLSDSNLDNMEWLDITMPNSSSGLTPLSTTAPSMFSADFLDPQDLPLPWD
UniProt Q9BQG0: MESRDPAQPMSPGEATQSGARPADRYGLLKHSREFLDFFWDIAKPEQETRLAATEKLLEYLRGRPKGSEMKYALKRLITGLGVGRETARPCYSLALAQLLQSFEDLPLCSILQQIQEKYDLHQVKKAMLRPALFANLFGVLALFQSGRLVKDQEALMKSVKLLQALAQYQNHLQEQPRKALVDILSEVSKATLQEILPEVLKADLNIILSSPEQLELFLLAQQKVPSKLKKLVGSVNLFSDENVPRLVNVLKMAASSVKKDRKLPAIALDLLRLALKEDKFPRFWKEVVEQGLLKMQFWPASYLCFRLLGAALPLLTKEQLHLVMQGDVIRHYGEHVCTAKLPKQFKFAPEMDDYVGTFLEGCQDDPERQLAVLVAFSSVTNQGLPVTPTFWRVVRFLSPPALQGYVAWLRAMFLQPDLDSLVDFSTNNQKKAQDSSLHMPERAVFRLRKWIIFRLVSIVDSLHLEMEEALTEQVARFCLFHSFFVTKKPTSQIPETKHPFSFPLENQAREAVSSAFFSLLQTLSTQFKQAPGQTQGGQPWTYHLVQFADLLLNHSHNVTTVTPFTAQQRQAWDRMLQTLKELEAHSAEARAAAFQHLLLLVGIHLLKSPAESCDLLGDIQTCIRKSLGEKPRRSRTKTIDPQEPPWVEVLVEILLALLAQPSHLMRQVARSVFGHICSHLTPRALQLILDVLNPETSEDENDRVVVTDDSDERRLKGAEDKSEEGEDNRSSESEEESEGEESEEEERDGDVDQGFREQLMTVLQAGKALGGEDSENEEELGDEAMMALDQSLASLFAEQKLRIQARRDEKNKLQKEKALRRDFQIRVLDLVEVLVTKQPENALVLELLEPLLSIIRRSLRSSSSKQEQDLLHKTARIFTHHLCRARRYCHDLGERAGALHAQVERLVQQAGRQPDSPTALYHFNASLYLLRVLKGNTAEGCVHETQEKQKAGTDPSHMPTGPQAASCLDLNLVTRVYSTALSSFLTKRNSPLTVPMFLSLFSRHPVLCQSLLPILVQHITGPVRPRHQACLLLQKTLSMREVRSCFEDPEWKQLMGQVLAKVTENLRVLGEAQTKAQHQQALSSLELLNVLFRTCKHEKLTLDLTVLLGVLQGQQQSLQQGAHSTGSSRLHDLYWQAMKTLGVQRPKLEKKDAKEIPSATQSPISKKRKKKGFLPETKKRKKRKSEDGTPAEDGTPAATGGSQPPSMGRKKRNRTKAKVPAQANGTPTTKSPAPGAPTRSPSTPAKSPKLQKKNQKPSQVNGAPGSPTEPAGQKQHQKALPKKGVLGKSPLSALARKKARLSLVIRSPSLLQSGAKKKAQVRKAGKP

How the values were obtained:
Test in all cases: log2 fold change, soluble protein after heating vs DMSO (PISA); higher = thermal stabilisation; K562 cells, 10 uM, 30 min; active = over 0.2 and 3.5 SD of the protein, either way, in both replicates (recomputed)
IRAK-1-4 Inhibitor I = compound: C1COCCN1CCN2C3=CC=CC=C3N=C2NC(=O)C4=CC(=CC=C4)[N+](=O)[O-] [IRAK-1-4 Inhibitor I]
Outline: (§1)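 K562 cells at 2×10^6 cells/mL were treated with 10 μM compound for 30 min. Aliquots were heated for 3 min across 48°C-58°C, pooled, and extracted in PBS with 0.5% NP-40 at 4°C; soluble protein was the supernatant after 21,000xg for 90 min. Soluble protein was quantified by TMTpro 16plex LC-MS/MS with channel sums equalised, and reported as log2 fold change in thermal stability against DMSO controls, with values from duplicates.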

ibrutinib = compound: C=CC(=O)N1CCC[C@@H](n2nc(-c3ccc(Oc4ccccc4)cc3)c3c(N)ncnc32)C1 [ibrutinib]
Outline: as §1

[1] = compound: CC(=O)c1cnc2ccc(-c3cc(Cl)c(O)c(Cl)c3)nc2c1N[C@H]1CC[C@H](CN(C)C)CC1
Outline: as §1

ralimetinib = compound: CC(C)(C)Cn1c(N)nc2ccc(-c3[nH]c(C(C)(C)C)nc3-c3ccc(F)cc3)nc21 [ralimetinib]
Outline: as §1

[2] = compound: CC(C)(O)CC(=O)NCCn1ccc2ncnc(Nc3ccc(Oc4cccc(C(F)(F)F)c4)c(Cl)c3)c21
Outline: as §1

[3] = compound: CC(C)C1=C2N=C(C=C(N2N=C1)NCC3=CC=CC=C3)NCCCCCCN
Outline: as §1

[4] = compound: CC(C)C[C@@H](C=O)NC(=O)[C@H](CC(C)C)NC(=O)[C@H](CC(C)C)NC(=O)OCc1ccccc1
Outline: as §1

pinometostat = compound: CC(C)N(C[C@H]1O[C@@H](n2cnc3c(N)ncnc32)[C@H](O)[C@@H]1O)[C@H]1C[C@@H](CCc2nc3cc(C(C)(C)C)ccc3[nH]2)C1 [pinometostat]
Outline: as §1

[5] = compound: CC1=C(C(CC(=O)N1)C2=CC=C(C=C2)C(F)(F)F)C(=O)NC3=C(C=C4C(=C3)C=NN4)F
Outline: as §1

[6] = compound: CC1=C(C2=C(C=C1)C(=O)C3=CC=CC=C3N2CCCN)C
Outline: as §1

Measured: log2 fold change

MTHFD2 (UniProt P13995)
inactive: IRAK-1-4 Inhibitor I 0.06 | ibrutinib -0.005 | [1] -0.021 | ralimetinib -0.074 | [2] -0.074 | [3] -0.105 | [4] -0.023 | pinometostat -0.01 | [5] 0.026 | [6] -0.032

MSRB2 (UniProt Q9Y3D2)
inactive: IRAK-1-4 Inhibitor I 0.154 | ibrutinib -0.224 | [1] -0.254 | ralimetinib -0.01 | [2] -0.156 | [3] 0.095 | [4] -0.03 | pinometostat -0.115 | [5] -0.124 | [6] -0.121

MTFR1 (UniProt Q15390)
inactive: IRAK-1-4 Inhibitor I 0.027 | ibrutinib -0.053 | [1] -0.03 | ralimetinib -0.015 | [2] -0.049 | [3] -0.156 | [4] -0.028 | pinometostat -0.006 | [5] 0.087 | [6] 0.111

MTX2 (UniProt O75431)
inactive: IRAK-1-4 Inhibitor I 0.037 | ibrutinib 0.004 | [1] -0.01 | ralimetinib -0.077 | [2] -0.048 | [3] 0.01 | [4] 0.047 | pinometostat 0.01 | [5] -0.019 | [6] 0.056

MVK (UniProt Q03426)
inactive: IRAK-1-4 Inhibitor I -0.016 | ibrutinib -0.02 | [1] -0.002 | ralimetinib -0.023 | [2] -0.038 | [3] 0.047 | [4] -0.019 | pinometostat -0.003 | [5] 0.027 | [6] -0.003

MTMR6 (UniProt Q9Y217)
inactive: IRAK-1-4 Inhibitor I -0.056 | ibrutinib 0.046 | [1] -0.062 | ralimetinib -0.04 | [2] -0.05 | [3] -0.069 | [4] 0.08 | pinometostat -0.017 | [5] 0.047 | [6] -0.072

MTX1 (UniProt Q13505)
inactive: IRAK-1-4 Inhibitor I 0.024 | ibrutinib 0.015 | [1] -0.011 | ralimetinib -0.068 | [2] -0.012 | [3] 0.079 | [4] 0.013 | pinometostat -0.024 | [5] -0.021 | [6] 0.007

MT-ND5 (UniProt P03915)
inactive: IRAK-1-4 Inhibitor I 0.056 | ibrutinib 0.031 | [1] -0.006 | ralimetinib -0.042 | [2] -0.027 | [3] 0.032 | [4] -0.087 | pinometostat 0.024 | [5] -0.025 | [6] 0.111

MYO1C (UniProt O00159)
inactive: IRAK-1-4 Inhibitor I -0.384 | ibrutinib -0.239 | [1] -0.079 | ralimetinib 0.109 | [2] -0.253 | [3] -0.236 | [4] 0.07 | pinometostat 0.385 | [5] 0 | [6] 0.122

MUCL1 (UniProt Q96DR8)
inactive: IRAK-1-4 Inhibitor I 0.131 | ibrutinib 0.272 | [1] 0.193 | ralimetinib -0.19 | [2] -0.068 | [3] 0.173 | [4] -0.153 | pinometostat -0.341 | [5] -0.915 | [6] 0.522

MYH14 isoform 2 (UniProt Q7Z406)
inactive: IRAK-1-4 Inhibitor I 0.049 | ibrutinib -0.007 | [1] 0.063 | ralimetinib 0 | [2] -0.009 | [3] 0.008 | [4] -0.022 | pinometostat -0.011 | [5] 0.144 | [6] -0.033

MTA1 (UniProt Q13330)
inactive: IRAK-1-4 Inhibitor I -0.025 | ibrutinib -0.023 | [1] -0.188 | ralimetinib -0.012 | [2] -0.072 | [3] -0.101 | [4] 0.025 | pinometostat 0.027 | [5] -0.003 | [6] -0.201

MYO18A (UniProt Q92614)
inactive: IRAK-1-4 Inhibitor I 0.014 | ibrutinib 0.1 | [1] -0.177 | ralimetinib 0.096 | [2] 0.066 | [3] -0.066 | [4] 0.123 | pinometostat 0.1 | [5] 0.034 | [6] -0.041

MYL4 (UniProt P12829)
inactive: IRAK-1-4 Inhibitor I -0.031 | ibrutinib 0.024 | [1] 0.04 | ralimetinib -0.004 | [2] -0.003 | [3] 0.111 | [4] 0.003 | pinometostat -0.089 | [5] 0.043 | [6] 0.043

MRS2 (UniProt Q9HD23)
inactive: IRAK-1-4 Inhibitor I 0.001 | ibrutinib 0.003 | [1] 0.022 | ralimetinib 0.036 | [2] -0.014 | [3] 0.043 | [4] -0.055 | pinometostat -0.018 | [5] 0.006 | [6] 0.016

MYADM (UniProt Q96S97)
inactive: IRAK-1-4 Inhibitor I -0.11 | ibrutinib 0.011 | [1] -0.046 | ralimetinib 0.027 | [2] -0.005 | [3] -0.053 | [4] -0.046 | pinometostat -0.032 | [5] 0.034 | [6] 0.03

MTHFD1L (UniProt Q6UB35)
inactive: IRAK-1-4 Inhibitor I 0.024 | ibrutinib -0.019 | [1] -0.067 | ralimetinib -0.037 | [2] -0.039 | [3] -0.003 | [4] 0.003 | pinometostat -0.05 | [5] -0.01 | [6] 0.063

MTMR12 (UniProt Q9C0I1)
inactive: IRAK-1-4 Inhibitor I 0.01 | ibrutinib -0.018 | [1] -0.012 | ralimetinib -0.041 | [2] -0.006 | [3] 0.078 | [4] -0.007 | pinometostat -0.033 | [5] 0.029 | [6] 0.031

MTA2 (UniProt O94776)
inactive: IRAK-1-4 Inhibitor I -0.076 | ibrutinib -0.024 | [1] -0.126 | ralimetinib 0.049 | [2] -0.043 | [3] -0.166 | [4] 0.017 | pinometostat 0.024 | [5] -0.015 | [6] 0.02

MYCBP2 (UniProt O75592)
inactive: IRAK-1-4 Inhibitor I 0.137 | ibrutinib 0.134 | [1] -0.016 | ralimetinib -0.078 | [2] 0.108 | [3] 0.073 | [4] 0.296 | pinometostat -0.028 | [5] -0.001 | [6] -0.134

MTFP1 (UniProt Q9UDX5)
inactive: IRAK-1-4 Inhibitor I 0.033 | ibrutinib 0.006 | [1] 0.04 | ralimetinib -0.056 | [2] 0.027 | [3] 0.098 | [4] 0.035 | pinometostat 0.02 | [5] -0.003 | [6] 0.014

MTPAP (UniProt Q9NVV4)
inactive: IRAK-1-4 Inhibitor I -0.129 | ibrutinib 0.003 | [1] -0.052 | ralimetinib 0.069 | [2] -0.007 | [3] -0.129 | [4] 0.141 | pinometostat 0.166 | [5] -0.018 | [6] 0.003

MRTFA (UniProt Q969V6)
inactive: IRAK-1-4 Inhibitor I 0.102 | ibrutinib -0.02 | [1] 0.049 | ralimetinib -0.055 | [2] -0.103 | [3] -0.101 | [4] 0.062 | pinometostat -0.049 | [5] 0.159 | [6] -0.015

MSN (UniProt P26038)
inactive: IRAK-1-4 Inhibitor I -0.005 | ibrutinib -0.022 | [1] 0.055 | ralimetinib -0.004 | [2] 0.034 | [3] 0.049 | [4] -0.01 | pinometostat -0.053 | [5] -0.061 | [6] 0.015

MRTO4 (UniProt Q9UKD2)
inactive: IRAK-1-4 Inhibitor I -0.282 | ibrutinib -0.041 | [1] 0.036 | ralimetinib 0.142 | [2] 0 | [3] -0.208 | [4] 0.116 | pinometostat 0.314 | [5] 0.014 | [6] 0.052

MUC1, A0A087WWM1
inactive: IRAK-1-4 Inhibitor I 0.136 | ibrutinib 0.039 | [1] -0.028 | ralimetinib -0.15 | [2] 0 | [3] 0.128 | [4] 0.046 | pinometostat -0.085 | [5] -0.038 | [6] -0.061

MRTFB isoform 5 (UniProt Q9ULH7)
inactive: IRAK-1-4 Inhibitor I -0.034 | ibrutinib 0.003 | [1] 0 | ralimetinib -0.047 | [2] -0.023 | [3] 0.015 | [4] 0.052 | pinometostat -0.035 | [5] 0.003 | [6] 0.027

MYBBP1A isoform 2 (UniProt Q9BQG0)
inactive: IRAK-1-4 Inhibitor I -0.198 | ibrutinib -0.105 | [1] -0.262 | ralimetinib -0.04 | [2] -0.001 | [3] -0.271 | [4] 0.041 | pinometostat 0.666 | [5] 0.067 | [6] -0.337

Taken from above (two entries):
MRTFB isoform 5 (UniProt Q9ULH7)
inactive: IRAK-1-4 Inhibitor I -0.034 | ibrutinib 0.003 | [1] 0 | ralimetinib -0.047 | [2] -0.023 | [3] 0.015 | [4] 0.052 | pinometostat -0.035 | [5] 0.003 | [6] 0.027

MYBBP1A isoform 2 (UniProt Q9BQG0)
inactive: IRAK-1-4 Inhibitor I -0.198 | ibrutinib -0.105 | [1] -0.262 | ralimetinib -0.04 | [2] -0.001 | [3] -0.271 | [4] 0.041 | pinometostat 0.666 | [5] 0.067 | [6] -0.337

Continuation.

MYO6 isoform 6 (UniProt Q9UM54)
inactive: IRAK-1-4 Inhibitor I 0.03 | ibrutinib 0.029 | [1] 0.021 | ralimetinib -0.006 | [2] -0.015 | [3] 0.076 | [4] -0.038 | pinometostat -0.006 | [5] -0.016 | [6] 0.088

MYH9 (UniProt P35579)
inactive: IRAK-1-4 Inhibitor I 0.017 | ibrutinib -0.034 | [1] 0.032 | ralimetinib 0.005 | [2] -0.05 | [3] 0.011 | [4] -0.032 | pinometostat -0.031 | [5] -0.001 | [6] -0.003
